Compound in this test: Cc1cc(ccc1-c1ccccc1)C(=O)N1CCCN(CC1)C(=O)CCl [compound 10]
The test is described as follows: probe-labelled cysteine peptide fold change vs DMSO (competition) (log2 fold change); higher = less target engagement (more negative = stronger competition). The following applies: THP-1, incubation time: 4 h.

Amino acid sequences for entries named in this document (tags omitted). A change or cut given only in a name is not applied to a line headed by its entry.
UniProt O00139: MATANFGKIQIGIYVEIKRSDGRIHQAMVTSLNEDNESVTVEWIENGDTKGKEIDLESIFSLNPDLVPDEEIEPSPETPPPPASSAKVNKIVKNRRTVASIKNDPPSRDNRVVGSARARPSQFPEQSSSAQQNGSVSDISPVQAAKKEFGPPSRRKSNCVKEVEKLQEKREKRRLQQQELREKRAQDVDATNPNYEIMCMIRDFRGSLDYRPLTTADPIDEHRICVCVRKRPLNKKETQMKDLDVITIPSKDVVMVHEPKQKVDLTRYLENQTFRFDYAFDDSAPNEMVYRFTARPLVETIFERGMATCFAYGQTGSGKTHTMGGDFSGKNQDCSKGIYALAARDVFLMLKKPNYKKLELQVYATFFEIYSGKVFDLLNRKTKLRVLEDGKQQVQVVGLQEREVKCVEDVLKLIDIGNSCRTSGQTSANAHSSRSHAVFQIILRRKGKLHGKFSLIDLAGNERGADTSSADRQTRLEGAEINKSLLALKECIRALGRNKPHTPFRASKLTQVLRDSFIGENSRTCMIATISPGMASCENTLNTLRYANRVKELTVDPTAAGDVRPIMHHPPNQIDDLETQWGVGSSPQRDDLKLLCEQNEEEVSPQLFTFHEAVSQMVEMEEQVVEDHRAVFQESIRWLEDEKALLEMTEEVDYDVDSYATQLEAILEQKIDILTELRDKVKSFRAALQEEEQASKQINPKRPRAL
UniProt O95239: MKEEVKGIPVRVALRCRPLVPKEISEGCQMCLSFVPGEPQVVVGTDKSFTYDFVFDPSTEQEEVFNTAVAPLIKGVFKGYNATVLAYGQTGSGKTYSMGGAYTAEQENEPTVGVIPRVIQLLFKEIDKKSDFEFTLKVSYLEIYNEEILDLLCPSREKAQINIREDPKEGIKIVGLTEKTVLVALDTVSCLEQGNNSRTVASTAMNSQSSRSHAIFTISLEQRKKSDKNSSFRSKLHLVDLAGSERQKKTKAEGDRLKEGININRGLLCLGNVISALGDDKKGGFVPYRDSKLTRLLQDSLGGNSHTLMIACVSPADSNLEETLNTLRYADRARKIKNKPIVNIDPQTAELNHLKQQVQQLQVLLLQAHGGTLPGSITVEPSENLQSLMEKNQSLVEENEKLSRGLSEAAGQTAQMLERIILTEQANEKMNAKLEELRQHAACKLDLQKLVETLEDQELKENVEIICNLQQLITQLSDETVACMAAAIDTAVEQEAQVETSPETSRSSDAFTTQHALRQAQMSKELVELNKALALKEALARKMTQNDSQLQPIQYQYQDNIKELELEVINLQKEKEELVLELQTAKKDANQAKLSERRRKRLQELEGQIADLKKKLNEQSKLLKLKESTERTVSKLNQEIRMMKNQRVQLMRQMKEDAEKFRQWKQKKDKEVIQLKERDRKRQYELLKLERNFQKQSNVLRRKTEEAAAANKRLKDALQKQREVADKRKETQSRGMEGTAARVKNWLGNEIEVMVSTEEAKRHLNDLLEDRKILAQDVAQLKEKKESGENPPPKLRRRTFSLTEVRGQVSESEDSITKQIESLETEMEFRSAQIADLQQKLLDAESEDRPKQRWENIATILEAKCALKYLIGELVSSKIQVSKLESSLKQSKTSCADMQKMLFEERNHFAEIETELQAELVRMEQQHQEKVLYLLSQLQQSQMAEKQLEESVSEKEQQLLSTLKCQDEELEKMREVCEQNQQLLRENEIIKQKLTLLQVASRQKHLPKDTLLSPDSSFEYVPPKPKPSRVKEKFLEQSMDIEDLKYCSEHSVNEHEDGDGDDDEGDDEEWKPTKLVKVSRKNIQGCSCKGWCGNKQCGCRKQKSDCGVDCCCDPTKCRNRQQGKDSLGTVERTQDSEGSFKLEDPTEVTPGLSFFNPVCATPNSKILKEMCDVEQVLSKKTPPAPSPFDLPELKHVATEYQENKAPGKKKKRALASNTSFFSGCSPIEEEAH
UniProt Q9NS86: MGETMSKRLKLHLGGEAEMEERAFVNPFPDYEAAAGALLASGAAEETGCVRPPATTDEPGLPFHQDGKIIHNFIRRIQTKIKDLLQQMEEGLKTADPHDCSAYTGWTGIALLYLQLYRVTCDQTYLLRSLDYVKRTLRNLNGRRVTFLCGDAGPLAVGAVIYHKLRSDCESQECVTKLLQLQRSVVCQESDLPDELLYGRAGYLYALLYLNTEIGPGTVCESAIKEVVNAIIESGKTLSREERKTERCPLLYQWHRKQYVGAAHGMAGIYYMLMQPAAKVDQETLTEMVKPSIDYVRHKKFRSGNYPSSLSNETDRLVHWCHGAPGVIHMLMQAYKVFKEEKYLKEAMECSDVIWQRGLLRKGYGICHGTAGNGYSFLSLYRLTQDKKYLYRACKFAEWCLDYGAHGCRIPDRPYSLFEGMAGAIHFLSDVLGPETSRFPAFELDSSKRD
UniProt Q9P2J5: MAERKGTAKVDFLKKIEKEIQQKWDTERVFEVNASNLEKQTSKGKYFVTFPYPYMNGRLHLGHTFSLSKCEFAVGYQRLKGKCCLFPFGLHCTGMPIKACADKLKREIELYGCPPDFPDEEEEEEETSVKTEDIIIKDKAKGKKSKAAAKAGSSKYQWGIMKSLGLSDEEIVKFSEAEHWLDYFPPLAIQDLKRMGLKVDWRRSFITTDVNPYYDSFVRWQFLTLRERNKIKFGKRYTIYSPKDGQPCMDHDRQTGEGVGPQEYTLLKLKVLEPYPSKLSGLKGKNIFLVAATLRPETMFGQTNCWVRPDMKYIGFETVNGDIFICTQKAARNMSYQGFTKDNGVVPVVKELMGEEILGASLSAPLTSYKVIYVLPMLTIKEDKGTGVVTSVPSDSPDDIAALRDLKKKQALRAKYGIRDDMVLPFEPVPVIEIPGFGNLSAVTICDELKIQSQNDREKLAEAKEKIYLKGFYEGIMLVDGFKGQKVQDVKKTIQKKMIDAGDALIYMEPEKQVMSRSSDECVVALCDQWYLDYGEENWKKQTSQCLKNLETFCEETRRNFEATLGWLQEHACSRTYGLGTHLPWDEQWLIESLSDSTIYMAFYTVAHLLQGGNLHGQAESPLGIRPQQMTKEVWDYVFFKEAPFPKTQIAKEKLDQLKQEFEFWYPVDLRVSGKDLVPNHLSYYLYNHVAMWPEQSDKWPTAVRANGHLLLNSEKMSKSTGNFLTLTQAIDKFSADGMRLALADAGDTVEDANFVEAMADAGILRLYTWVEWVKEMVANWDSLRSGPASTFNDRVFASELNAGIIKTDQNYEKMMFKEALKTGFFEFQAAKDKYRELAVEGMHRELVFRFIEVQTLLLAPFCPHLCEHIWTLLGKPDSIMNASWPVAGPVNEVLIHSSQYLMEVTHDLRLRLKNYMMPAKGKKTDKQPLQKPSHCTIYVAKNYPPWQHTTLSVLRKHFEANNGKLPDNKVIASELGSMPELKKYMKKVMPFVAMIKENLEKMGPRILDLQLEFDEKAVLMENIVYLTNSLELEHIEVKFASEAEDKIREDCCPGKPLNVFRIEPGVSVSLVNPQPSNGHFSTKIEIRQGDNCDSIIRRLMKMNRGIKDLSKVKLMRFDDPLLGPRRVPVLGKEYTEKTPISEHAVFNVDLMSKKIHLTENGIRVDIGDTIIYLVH
UniProt Q9Y4W2: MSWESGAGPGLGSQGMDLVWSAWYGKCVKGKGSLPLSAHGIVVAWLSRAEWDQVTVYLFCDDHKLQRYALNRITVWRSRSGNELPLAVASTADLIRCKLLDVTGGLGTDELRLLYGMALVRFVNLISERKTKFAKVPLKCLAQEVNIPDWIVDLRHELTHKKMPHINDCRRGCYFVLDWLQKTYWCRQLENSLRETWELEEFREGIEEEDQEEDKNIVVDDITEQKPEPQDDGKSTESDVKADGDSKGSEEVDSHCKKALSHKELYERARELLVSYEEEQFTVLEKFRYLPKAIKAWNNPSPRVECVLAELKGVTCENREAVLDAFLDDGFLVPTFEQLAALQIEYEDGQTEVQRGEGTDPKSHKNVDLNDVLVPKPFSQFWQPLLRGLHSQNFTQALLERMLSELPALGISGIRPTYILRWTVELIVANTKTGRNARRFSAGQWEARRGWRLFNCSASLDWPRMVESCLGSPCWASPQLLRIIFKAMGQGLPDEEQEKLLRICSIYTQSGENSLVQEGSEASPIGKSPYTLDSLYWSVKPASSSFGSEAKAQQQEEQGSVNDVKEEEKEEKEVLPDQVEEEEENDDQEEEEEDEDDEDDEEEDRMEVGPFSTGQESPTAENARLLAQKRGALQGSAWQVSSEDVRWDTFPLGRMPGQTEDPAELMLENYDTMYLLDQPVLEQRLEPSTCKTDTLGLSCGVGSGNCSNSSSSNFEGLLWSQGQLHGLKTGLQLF
UniProt Q9P2K6: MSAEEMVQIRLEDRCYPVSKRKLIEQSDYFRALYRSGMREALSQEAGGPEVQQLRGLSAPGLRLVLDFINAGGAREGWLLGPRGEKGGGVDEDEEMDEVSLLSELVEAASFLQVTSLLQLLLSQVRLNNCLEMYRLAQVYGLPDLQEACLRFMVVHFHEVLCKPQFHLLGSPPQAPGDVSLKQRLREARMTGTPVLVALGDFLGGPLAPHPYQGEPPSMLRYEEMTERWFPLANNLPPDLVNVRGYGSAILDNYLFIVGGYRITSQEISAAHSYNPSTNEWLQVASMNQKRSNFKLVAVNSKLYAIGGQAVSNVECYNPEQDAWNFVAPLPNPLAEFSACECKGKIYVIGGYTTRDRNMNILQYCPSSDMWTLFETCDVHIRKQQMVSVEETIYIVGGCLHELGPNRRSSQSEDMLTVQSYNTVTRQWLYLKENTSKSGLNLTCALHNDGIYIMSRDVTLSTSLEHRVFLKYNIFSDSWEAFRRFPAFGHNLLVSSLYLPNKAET
UniProt Q9Y2Q5, whole entry, looked up: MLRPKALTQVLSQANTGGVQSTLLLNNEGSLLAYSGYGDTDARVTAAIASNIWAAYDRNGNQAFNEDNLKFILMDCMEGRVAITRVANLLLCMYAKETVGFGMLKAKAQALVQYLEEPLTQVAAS
UniProt Q96EM0: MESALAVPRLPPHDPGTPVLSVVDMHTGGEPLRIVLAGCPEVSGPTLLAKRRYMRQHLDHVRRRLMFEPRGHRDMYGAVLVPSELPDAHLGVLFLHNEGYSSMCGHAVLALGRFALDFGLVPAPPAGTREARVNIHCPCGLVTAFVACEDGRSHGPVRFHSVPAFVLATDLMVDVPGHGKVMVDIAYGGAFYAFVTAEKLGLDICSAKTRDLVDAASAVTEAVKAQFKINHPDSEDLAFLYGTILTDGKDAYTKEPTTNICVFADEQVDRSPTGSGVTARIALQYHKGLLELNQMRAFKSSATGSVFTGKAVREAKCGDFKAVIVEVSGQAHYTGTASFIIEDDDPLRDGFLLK
UniProt Q99661: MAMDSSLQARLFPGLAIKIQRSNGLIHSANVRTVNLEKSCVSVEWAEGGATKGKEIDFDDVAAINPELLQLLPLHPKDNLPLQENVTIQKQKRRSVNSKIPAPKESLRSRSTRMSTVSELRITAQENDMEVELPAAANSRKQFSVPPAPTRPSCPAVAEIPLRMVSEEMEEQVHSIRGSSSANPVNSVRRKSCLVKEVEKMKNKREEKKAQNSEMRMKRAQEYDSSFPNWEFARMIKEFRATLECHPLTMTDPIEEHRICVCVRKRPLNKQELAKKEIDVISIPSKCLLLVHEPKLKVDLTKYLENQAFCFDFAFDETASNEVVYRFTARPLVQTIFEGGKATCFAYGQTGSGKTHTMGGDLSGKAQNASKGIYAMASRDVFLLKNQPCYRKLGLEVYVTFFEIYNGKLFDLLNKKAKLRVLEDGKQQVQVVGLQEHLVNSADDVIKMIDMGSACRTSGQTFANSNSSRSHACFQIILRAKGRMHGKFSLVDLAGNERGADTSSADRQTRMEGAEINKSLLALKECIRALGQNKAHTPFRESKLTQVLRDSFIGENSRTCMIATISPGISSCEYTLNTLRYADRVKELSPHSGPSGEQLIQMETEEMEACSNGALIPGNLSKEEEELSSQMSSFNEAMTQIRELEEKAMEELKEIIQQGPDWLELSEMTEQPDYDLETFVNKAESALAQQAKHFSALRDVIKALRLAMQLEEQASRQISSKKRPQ

The values that follow come from the supplement of paper PMC12067093, “Discovery and optimisation of a covalent ligand for TRIM25 and its application to targeted protein ubiquitination” (Chemical Science, 2025).

The other results are listed elsewhere or left out.
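Note: competitive profiling in live THP-1 cells: cysteine peptides tagged with an iodoacetamide desthiobiotin (IA-DTB) probe, intensity after compound treatment relative to DMSO-treated cells.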

Turning to “KPNB1_Q14974_345_GALQYLVPILTQTLTKQDENDDDDDWNPCK (UniProt Q14974)”, the “probe-labelled cysteine peptide fold change” value runs as follows: (10 µM) 0.0867; (50 µM) -0.311.

Turning to “KPNA1_P52294_424_YLVELGCIK (UniProt P52294)”, the “probe-labelled cysteine peptide fold change” value reads like this: (10 µM) 0.248; (50 µM) 0.177.

“LAMTOR5_O43504_66_LTSDPTDIPVVCLESDNGNIMIQK (UniProt O43504)”: the “probe-labelled cysteine peptide fold change” value is, setting by setting: (10 µM) -0.0338; (50 µM) 0.00926.

With “KMT2B_Q9UMN6_1749_IDSLGTLSDLSDCEGR (UniProt Q9UMN6)”, the “probe-labelled cysteine peptide fold change” value (10 µM) is -0.0799 and the “probe-labelled cysteine peptide fold change” value (50 µM) amounted to 0.192.

With “KIF2A_O00139_420_LIDIGNSCR (UniProt O00139)”, the “probe-labelled cysteine peptide fold change” value was -0.0416 (10 µM) and -0.0312 (50 µM).

In the case of “KIF4A_O95239_965_CQDEELEK (UniProt O95239)”, the “probe-labelled cysteine peptide fold change” value was -0.106 (10 µM) and -0.0153 (50 µM).

Regarding “LANCL2_Q9NS86_367_GYGICHGTAGNGYSFLSLYR (UniProt Q9NS86)”, the “probe-labelled cysteine peptide fold change” value is -0.271 (10 µM) and 0.0177 (50 µM).

For the target “KPNB1_Q14974_392_DAAVMAFGCILEGPEPSQLK (UniProt Q14974)”, the “probe-labelled cysteine peptide fold change” value (10 µM) is 0.132 and the “probe-labelled cysteine peptide fold change” value (50 µM) was 0.441.

Take “LCP1_P13796_101_KEGICAIGGTSEQSSVGTQHSYSEEEK (UniProt P13796)”: the “probe-labelled cysteine peptide fold change” value reads like this: (10 µM) -0.345; (50 µM) -0.236.

Take “LENG8_Q96PV6_643_GDHEEFNQCQTQLK (UniProt Q96PV6)”: the “probe-labelled cysteine peptide fold change” value (10 µM) worked out at 0.166 and the “probe-labelled cysteine peptide fold change” value (50 µM) is 0.0982.

In the case of “LARS_Q9P2J5_546_QTSQCLK (UniProt Q9P2J5)”, the “probe-labelled cysteine peptide fold change” value reads like this: (10 µM) -0.0553; (50 µM) -0.0485.

Consider “KIFC1_Q9BW19_663_VNQCVIGTAQANRK (UniProt Q9BW19)”, for which the “probe-labelled cysteine peptide fold change” value is -0.016 (10 µM) and -0.249 (50 µM).

As for “KPNA6_O60684_422_YLVSLGCIK (UniProt O60684)”, the “probe-labelled cysteine peptide fold change” value by setting is: (10 µM) 0.107; (50 µM) 0.27.

“KNL1_Q8NG31_1407_GQLDCVITLHK (UniProt Q8NG31)”: the “probe-labelled cysteine peptide fold change” value was 0.135 (10 µM) and -0.0533 (50 µM).

Consider “KMT2D_O14686_5338_HPLMELPLMINPTGCAR (UniProt O14686)”, for which the “probe-labelled cysteine peptide fold change” value was determined as 0.154 (10 µM) and 0.341 (50 µM).

As to “KPNB1_Q14974_345_QDENDDDDDWNPCK (UniProt Q14974)”, the “probe-labelled cysteine peptide fold change” value is 0.109 (10 µM) and -0.0163 (50 µM).

With “LARP1B_Q659C4_649_HSTNPPLECHVGWVMDSR, A0A3B3ISF0+Q659C4”, the “probe-labelled cysteine peptide fold change” value reads like this: (10 µM) 0.0444; (50 µM) 0.0204.

Consider “LAMP1_P11279_338_CNAEEHVR (UniProt P11279)”, for which the “probe-labelled cysteine peptide fold change” value runs as follows: (10 µM) -0.214; (50 µM) 0.0965.

As to “KRR1_Q13601_142_ILQDDVACDIIK (UniProt Q13601)”, the “probe-labelled cysteine peptide fold change” value (10 µM) was 0.0484 and the “probe-labelled cysteine peptide fold change” value (50 µM) was 0.124.

In the case of “LAS1L_Q9Y4W2_169_KMPHINDCRR (UniProt Q9Y4W2)”, the “probe-labelled cysteine peptide fold change” value (10 µM) is -0.13 and the “probe-labelled cysteine peptide fold change” value (50 µM) was -0.679.

For “KLHL15_Q96M94_588_LDGLQVCNLHFPDYVLDEVR (UniProt Q96M94)”, the “probe-labelled cysteine peptide fold change” value is, setting by setting: (10 µM) -0.0242; (50 µM) -0.276.

Regarding “LAP3_P28838_376_LILADALCYAHTFNPK (UniProt P28838)”, the “probe-labelled cysteine peptide fold change” value (10 µM) was found to be 0.0434 and the “probe-labelled cysteine peptide fold change” value (50 µM) came to 0.0196.

On to “KLHL42_Q9P2K6_399_QQMVSVEETIYIVGGCLHELGPNRR (UniProt Q9P2K6)”, for which the “probe-labelled cysteine peptide fold change” value was 0.305 (10 µM) and 0.379 (50 µM).

Turning to “LAMC1_P11047_447_CQPGFHSLTEAGCRPCSCDPSGSIDECNIETGR (UniProt P11047)”, the “probe-labelled cysteine peptide fold change” value reads like this: (10 µM) 0.07; (50 µM) 0.0163.

“LDLR_P01130_34_NEFQCQDGK (UniProt P01130)”: the “probe-labelled cysteine peptide fold change” value was -0.0424 (10 µM) and 0.0111 (50 µM).

For “KPNA6_O60684_427_YLVSLGCIKPLCDLLTVMDSK (UniProt O60684)”, the “probe-labelled cysteine peptide fold change” value is -0.101 (10 µM) and -0.85 (50 µM).

As for “LAMTOR2_Q9Y2Q5_92_VANLLLCMYAK (UniProt Q9Y2Q5)”, the “probe-labelled cysteine peptide fold change” value is 0.151 (10 µM) and 0.282 (50 µM).

As for “KPNA6_O60684_467_SGSGVNPYCGLIEEAYGLDK (UniProt O60684)”, the “probe-labelled cysteine peptide fold change” value by setting is: (10 µM) -0.141; (50 µM) 0.0964.

As to “L3HYPDH_Q96EM0_137_VNIHCPCGLVTAFVACEDGR (UniProt Q96EM0)”, the “probe-labelled cysteine peptide fold change” value by setting is: (10 µM) 0.0341; (50 µM) -0.405.

For the target “L3HYPDH_Q96EM0_137+148_VNIHCPCGLVTAFVACEDGR (UniProt Q96EM0)”, the “probe-labelled cysteine peptide fold change” value reads like this: (10 µM) 0.107; (50 µM) -0.514.

Consider “LEMD3_Q9Y2U8_547_LAQLAGDHECGSSSQR (UniProt Q9Y2U8)”, for which the “probe-labelled cysteine peptide fold change” value was -0.0495 (10 µM) and 0.0938 (50 µM).

Turning to “LAMC1_P11047_477_CKPGFFNLESSNPR (UniProt P11047)”, the “probe-labelled cysteine peptide fold change” value was 0.00393 (10 µM) and -0.0442 (50 µM).

Consider “LAP3_P28838_462_SAGACTAAAFLK (UniProt P28838)”, for which the “probe-labelled cysteine peptide fold change” value is -0.151 (10 µM) and -0.0706 (50 µM).

“LCP1_P13796_283_WANYHLENAGCNK (UniProt P13796)”: the “probe-labelled cysteine peptide fold change” value turned out to be 0.0317 (10 µM) and 0.184 (50 µM).

In the case of “KLHL26_Q53HC5_38_CTFSAPSHSTSLLQGLATLR (UniProt Q53HC5)”, the “probe-labelled cysteine peptide fold change” value is, setting by setting: (10 µM) -0.0538; (50 µM) -0.00127.

For “LDHA_P00338_35_ITVVGVGAVGMACAISILMK (UniProt P00338)”, the “probe-labelled cysteine peptide fold change” value by setting is: (10 µM) -0.106; (50 µM) 0.321.

Regarding “KNL1_Q8NG31_1301_AQVESCQLNNR (UniProt Q8NG31)”, the “probe-labelled cysteine peptide fold change” value is, setting by setting: (10 µM) -0.271; (50 µM) -0.49.

Turning to “LAMTOR5_O43504_33_NPSIVGVLCTDSQGLNLGCR (UniProt O43504)”, the “probe-labelled cysteine peptide fold change” value is, setting by setting: (10 µM) 0.116; (50 µM) -0.26.

As for “KIF5B_P33176_421_KCEEEIAK (UniProt P33176)”, the “probe-labelled cysteine peptide fold change” value (10 µM) came to 0.0723 and the “probe-labelled cysteine peptide fold change” value (50 µM) was -0.125.

Turning to “KPNB1_Q14974_359_AAGVCLMLLATCCEDDIVPHVLPFIK (UniProt Q14974)”, the “probe-labelled cysteine peptide fold change” value is, setting by setting: (10 µM) -0.17; (50 µM) -0.106.

For “LANCL2_Q9NS86_350_EAMECSDVIWQR (UniProt Q9NS86)”, the “probe-labelled cysteine peptide fold change” value by setting is: (10 µM) -0.222; (50 µM) 0.0818.

On to “KNTC1_P50748_1892_ALQCLFYLADK (UniProt P50748)”, for which the “probe-labelled cysteine peptide fold change” value (10 µM) was found to be 0.24 and the “probe-labelled cysteine peptide fold change” value (50 µM) came out at 0.196.

Take “KIF2C_Q99661_40_SCVSVEWAEGGATK (UniProt Q99661)”: the “probe-labelled cysteine peptide fold change” value amounted to 0.219 (10 µM) and 0.0615 (50 µM).

Regarding “LARS_Q9P2J5_92_CCLFPFGLHCTGMPIK (UniProt Q9P2J5)”, the “probe-labelled cysteine peptide fold change” value runs as follows: (10 µM) -0.106; (50 µM) -0.288.

“KTI12_Q96EK9_107_TPLCLVYCVRPGGPIAGPQVAGANENPGR (UniProt Q96EK9)”: the “probe-labelled cysteine peptide fold change” value (10 µM) was -0.0222 and the “probe-labelled cysteine peptide fold change” value (50 µM) is -0.161.

Consider “LARP7_Q4G0J3_148_CGNVVYISIPHYK (UniProt Q4G0J3)”, for which the “probe-labelled cysteine peptide fold change” value turned out to be 0.0026 (10 µM) and 0.0456 (50 µM).

Regarding “LCP1_P13796_206_KKLTPFTIQENLNLALNSASAIGCHVVNIGAEDLK (UniProt P13796)”, the “probe-labelled cysteine peptide fold change” value is, setting by setting: (10 µM) 0.0815; (50 µM) 0.223.

As for “KIF2C_Q99661_245_ATLECHPLTMTDPIEEHR (UniProt Q99661)”, the “probe-labelled cysteine peptide fold change” value (10 µM) was 0.0578 and the “probe-labelled cysteine peptide fold change” value (50 µM) is -0.0775.

As for “KLHL42_Q9P2K6_444_SGLNLTCALHNDGIYIMSR (UniProt Q9P2K6)”, the “probe-labelled cysteine peptide fold change” value (10 µM) is -0.0699 and the “probe-labelled cysteine peptide fold change” value (50 µM) stood at 0.0926.

As to “KIF4A_O95239_269_GLLCLGNVISALGDDKK (UniProt O95239)”, the “probe-labelled cysteine peptide fold change” value is -0.141 (10 µM) and -0.159 (50 µM).

In the case of “KIF2A_O00139_159_KSNCVK (UniProt O00139)”, the “probe-labelled cysteine peptide fold change” value is -0.438 (10 µM) and -0.822 (50 µM).

Regarding “LDHD_Q86WU2_384_HNAWYAALATRPGCK (UniProt Q86WU2)”, the “probe-labelled cysteine peptide fold change” value was -0.154 (10 µM) and -0.394 (50 µM).

As to “LARP4B_Q92615_167_TLEFCLSR (UniProt Q92615)”, the “probe-labelled cysteine peptide fold change” value is, setting by setting: (10 µM) 0.0369; (50 µM) -0.0021.

Consider “LAS1L_Q9Y4W2_60_AEWDQVTVYLFCDDHK (UniProt Q9Y4W2)”, for which the “probe-labelled cysteine peptide fold change” value by setting is: (10 µM) 0.0876; (50 µM) 0.334.

For the target “KLHL20_Q9Y2M5_356_CGVGVSVLDDLLYAVGGHDGSSYLNSVER (UniProt Q9Y2M5)”, the “probe-labelled cysteine peptide fold change” value runs as follows: (10 µM) 0.0197; (50 µM) -0.33.

For “KNTC1_P50748_1825_WLCPSTKPGEKPSELFELQEDEALRR (UniProt P50748)”, the “probe-labelled cysteine peptide fold change” value is, setting by setting: (10 µM) 0.0635; (50 µM) -0.0869.

Consider “LCMT1_Q9UIC8_316+318_HYCLCWATK (UniProt Q9UIC8)”, for which the “probe-labelled cysteine peptide fold change” value was 0.146 (10 µM) and -0.518 (50 µM).

Consider “LCOR_Q96JN0-3_1334_MECPDALAVESKPSR (UniProt Q96JN0)”, for which the “probe-labelled cysteine peptide fold change” value by setting is: (10 µM) -0.165; (50 µM) -0.442.

With “KLC1_Q07866-4_621_NNCLADSR (UniProt Q07866)”, the “probe-labelled cysteine peptide fold change” value (10 µM) was -0.212 and the “probe-labelled cysteine peptide fold change” value (50 µM) is -0.654.

For “LAMP5_Q9UJQ1_182_SYECQAQQTISLASSDPQK (UniProt Q9UJQ1)”, the “probe-labelled cysteine peptide fold change” value (10 µM) was -0.186 and the “probe-labelled cysteine peptide fold change” value (50 µM) is -0.0471.

For the target “KTN1_Q86UP2_303_TMMFSEDEALCVVDLLK (UniProt Q86UP2)”, the “probe-labelled cysteine peptide fold change” value (10 µM) is -0.0544 and the “probe-labelled cysteine peptide fold change” value (50 µM) was determined as 0.119.
